Here are results for 55 compounds from PubChem BioAssay AID624256 (NMMLSC, 2012).

This is one part of the list.

This experiment can be described thus: induction of myeloid progenitor differentiation, primary screen, cell-based, flow cytometry, MLPCN library (AID 624256).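 Further: cells exposed to compound for four days before flow analysis.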 Particulars: ER-HoxA9 myeloid progenitors, lysozyme-GFP differentiation, measured here: differentiation confirmed by MAC1 staining, at 10 µM, stronger effect = higher value.
For `O=[N+]([O-])c1cc([N+](=O)[O-])c(Nc2cccnc2)c([N+](=O)[O-])c1`, the GFP+ MAC1+ double positive was found to be 2.5%.

With `O=[N+]([O-])c1ccc(-c2cc([N+](=O)[O-])c(O)c([N+](=O)[O-])c2)cc1`, the GFP+ MAC1+ double positive amounted to 1.2%. Compound `COc1cc(C(=O)NCC2(N3CCOCC3)CCCCC2)ccc1OCC(C)C` yielded a GFP+ MAC1+ double positive of 0.2%. For `O=[As](O)(c1ccc(O)cc1)c1ccccc1O`, the GFP+ MAC1+ double positive came out at 0.2%. The compound `C[As](=O)(O)c1cccc(C(=O)O)c1` had a GFP+ MAC1+ double positive of 0.4%. As for `Cc1cccc(C)c1OP(C)(N)=O` (stereo not given), the GFP+ MAC1+ double positive came to 0.6%. In the case of `[N-]=[N+]=NC1CCCCC1NC(=O)c1cc([N+](=O)[O-])cc([N+](=O)[O-])c1` (stereo not given) it was 1.8%.

In the case of `Cc1ccc(OP(=O)(Nc2ccc([N+](=O)[O-])cn2)Oc2ccc(C)cc2)cc1`, the GFP+ MAC1+ double positive amounted to 0.6%. In the case of `CC(C)(C)c1ccc(OP(C)(=O)Nc2ccc(SC(F)(F)F)cc2)cc1` (stereo not given) it was 0.5%; in that of `Cc1ccc2nc3c(c(C)c2c1)CC(C(Cl)Cl)S3` (stereo not given), 0.5%; in that of `ClCCSc1nnc(-c2cccnc2)o1`, 0.5%.

In the case of `CCOC(=O)c1ccc(NP(C)(=O)Oc2ccccc2)cc1` (stereo not given), the GFP+ MAC1+ double positive came to 0.3%.

As to `COC(=O)C1(C)COP(=O)(N2CCCCCC2)OC1` (stereo not given), the GFP+ MAC1+ double positive turned out to be 1.4%. In the case of `Cc1ccc(NP(C)(=O)Oc2ccccc2)c(C)c1` (stereo not given) it was 0.3%; in that of `CC(C)c1ccc(OP(=O)(Nc2ccccn2)Oc2ccccc2F)cc1` (stereo not given), 0.5%.

With `COc1ccccc1OP(C)(=O)Nc1ccc(C)cc1` (stereo not given), the GFP+ MAC1+ double positive turned out to be 0.3%. The figure for `COc1ccc(OP(C)(=O)Nc2cccc(F)c2)cc1` (stereo not given) is 0.7%; for `O=[N+]([O-])c1cc([N+](=O)[O-])c(-c2ccn[nH]2)s1` it is 3.4%; for `CC(C)NC(=O)NP(=O)(Oc1ccccc1)Oc1ccccc1` it is 0.4%. In the case of `CCN(CC)C(=S)SC(NC=O)C(Cl)(Cl)Cl` (stereo not given) it was 0.8%. In the case of `O=C(OC1CN2CCC1CC2)c1cccc2[nH]cnc12` (stereo not given), the GFP+ MAC1+ double positive was determined as 0.6%. In the case of `Cc1cc(C)cc(OP(C)(N)=O)c1` (stereo not given) it was 0.1%; in that of `O=C(O)C(=O)c1ccc(N(CCCl)CCCl)cc1.c1ccc(Nc2ccccc2)cc1`, 1.5%. The figure for `CCOC(=O)Nc1ccc([As](=O)(O)O)c(O)c1` is 0.5%; for `CC1CCNP(=O)(N(CCCl)CCCl)O1` (stereo not given) it is 1.8%. In the case of `COP(=O)(OC)N1CC1c1ccccc1` (stereo not given) it was 0.3%. Regarding `Cc1cc(SC(NC(=O)c2ccccc2)C(Cl)(Cl)Cl)nc(C(C)C)n1` (stereo not given), the GFP+ MAC1+ double positive stood at 0.6%. On to `CCCCOc1ccc(C(=O)NCC2(N3CCCCC3)CCCCC2)cc1OC`, for which the GFP+ MAC1+ double positive stood at 0.6%.

As for `CP(=S)(Nn1cnnc1)Oc1ccccc1` (stereo not given), the GFP+ MAC1+ double positive came out at 1.1%. In the case of `CCOC(=O)Nc1cccc([As](=O)(O)O)c1` it was 1%. In turn, `COc1ccccc1OP(C)(=O)Nc1ccccc1` (stereo not given) showed a GFP+ MAC1+ double positive of 0.1%.

Turning to `O=P(Nc1ccccn1)(c1cccc2ccccc12)c1cccc2ccccc12`, the GFP+ MAC1+ double positive stood at 0.2%. Compound `Cc1cc(SC(NC=O)C(Cl)(Cl)Cl)ncn1` (stereo not given) displayed a GFP+ MAC1+ double positive of 0.1%. The figure for `O=[N+]([O-])c1ccc(Nc2ccc(Oc3ccc([N+](=O)[O-])cc3[N+](=O)[O-])cc2)c([N+](=O)[O-])c1` is 0.3%. The figure for `CP(=O)(Nc1ccccc1Br)Oc1ccccc1` (stereo not given) is 0.4%; for `CP(=O)(Oc1ccccc1)OC(c1ccccc1)C(F)(F)F` (stereo not given) it is 0.5%; for `COC(=O)C1(C)COP(=O)(N2CCCC2)OC1` (stereo not given) it is 1.5%.

As to `COP1(=S)c2c(C)nn(CCC#N)c2N=C(c2ccc(F)cc2)N1C` (stereo not given), the GFP+ MAC1+ double positive stood at 3.2%. `Cc1ccc(Nc2c([N+](=O)[O-])cc([N+](=O)[O-])cc2[N+](=O)[O-])cc1`: the GFP+ MAC1+ double positive stood at 2.9%. The figure for `CP(=O)(Nc1ccc(SC(F)(F)F)cc1)Oc1ccc(Cl)cc1` (stereo not given) is 0.1%; for `Cc1cc(C)cc(OP(C)(=O)Nc2ccc(SC(F)(F)F)cc2)c1` (stereo not given) it is 0.8%. In turn, `O=C(Nc1ccncc1[N+](=O)[O-])c1ccc([N+](=O)[O-])cc1[N+](=O)[O-]` returned a GFP+ MAC1+ double positive of 0.7%. The figure for `O=C(COc1ccccc1)OC1CN2CCC1CC2` (stereo not given) is 0.8%; for `CP(=O)(NC(=O)Nc1ccccc1)Oc1ccccc1` (stereo not given) it is 3.2%. In the case of `CCc1ccc(OP(C)(=O)N2CCN(c3ccc([N+](=O)[O-])cc3)CC2)cc1` (stereo not given) it was 0.3%. The figure for `CSc1ccc(Nc2c([N+](=O)[O-])cc([N+](=O)[O-])cc2[N+](=O)[O-])cc1` is 0.7%; for `CCOP(C)(=S)SCC(=O)NC(C)C(=O)O` (stereo not given) it is 0.7%; for `O=C(OC1CN2CCC1CC2)c1cccc([N+](=O)[O-])c1` (stereo not given) it is 0.6%.

In the case of `CCOC(=O)c1ccc(NC(=O)C(C)(CCl)SC)cc1` (stereo not given), the GFP+ MAC1+ double positive was 0.4%.

`CCOC(=O)c1ccc(NP(C)(=O)Oc2ccc(OC)cc2)cc1` (stereo not given) showed a GFP+ MAC1+ double positive of 1.8%. On to `O=[N+]([O-])c1cc([N+](=O)[O-])c(O)c([N+](=O)[O-])c1.c1ccc(Oc2ccncc2)cc1`, for which the GFP+ MAC1+ double positive was 1.2%.

Take `CCC(C)N(CC(C)C)C(=S)SC(NC(C)=O)C(Cl)(Cl)Cl` (stereo not given): the GFP+ MAC1+ double positive worked out at 0.6%. In the case of `CP(=O)(Nc1ccccn1)Oc1ccc(Cl)cc1` (stereo not given) it was 0.6%. On to `COc1ccc(C2=NCC(CBr)S2)cc1` (stereo not given), for which the GFP+ MAC1+ double positive turned out to be 0.5%. In the case of `COc1ccc(OP(C)(=O)Nc2ccc(Br)cc2)cc1` (stereo not given) it was 0.9%.
